One purity is given for all peptides; the source may state it once.
Assay: general procedure: Fmoc solid-phase peptide synthesis; Rink Amide MBHA (C-terminal amides); pre-loaded Wang or 2-chlorotrityl resin (C-terminal acids); HBTU/DIEA, Oxyma/DIC, or PyAOP/DIEA
Conditions: for final HPLC purity: analytical RP-HPLC; for cyclisation yield / isolated yield: TFA salt; for isolated yield: total yield, scale of the general procedure 0.1 mmol
[1] = cyclisation step, bicyclic, sequence written open

With “ac-Pen(1:3)-E(2:3)-T-Trp 7Me-Lys Ac-Pen(1:3)-Phe 4 2ae(2:3)-Nal-THP-Lys Ac—N—H-Sar-am” the “final HPLC purity” value (cyclisation step, Gemini C18, TFA salt, bicyclic, sequence written open) was greater than 95%, the cyclisation yield (cyclisation step, for the step of lactam bond formation, bicyclic, sequence written open) was 50% and the isolated yield (whole synthesis, bicyclic, sequence written open) was 15%.

Work on “7Ahp(2)-Pen(3)-N-T-7MeW-K(Ac)-Pen(3)-AEF-2Nal-THP-E(2)-N-3Pya-Sar-CONH2” yielded a cyclisation yield [1] of 13%.

Substance “PEG2(2)-Pen(3)-N-T-7MeW-K(Ac)-Pen(3)-AEF-2Nal-THP-hE(2)-N-3Pya-Sar-CONH2” has a cyclisation yield (cyclisation step) of 14%.

With “ac-Pen(1:3)-Dap(2:3)-T-Trp 7Me-Lvs Ac-Pen(1:3)-Phe 4 2ae(3:3)-Nal-THP-Lys Ac—N—H-Sar-am-PEG4DA(x,2:1,3:2)” the “final HPLC purity” value (cyclisation step, Gemini C18, TFA salt, bicyclic) was greater than 95%, the cyclisation yield (cyclisation step, for the step of 2nd cyclisation, bicyclic) was 50% and the isolated yield (whole synthesis, bicyclic) was 15%.

In the case of “McCO-k(2)-Pen(3)-O-T-W-Q-Pen(3)-AEF-2Nal-THP-E(2)-N-bAla-CONH2”, the cyclisation yield (cyclisation step) is reported as 49%.

For “Ac-[Pen]*-E**-T-[W(7-Me)]-[Lys(Ac)]-[Pen]*-Phe[4-(2-aminoethoxy)]**-[2-Nal]-[THP]-E-N-[3-Pal]-Sarc-NH2”, the “final HPLC purity” value (whole synthesis, Gemini C18, scale of the general procedure 0.1 mmol, acetate) was greater than 95%.

“6Ahx(2)-Abu(1)-N-T-W-Q-C(1)-AEF-2Nal-THP-E(2)-N-3Pya-Sar-CONH2” gave a cyclisation yield (cyclisation step) of 5%.

For “McCO-Glu-Pen-N-T-7MeW-K(Ac)-Pen-AEF-2Nal-THP—K(Ac)—N-3Pva-Sar-CONH2”, the cyclisation yield [1] was 10%.
